Test results reported in patent US20210364527A1.
Results are given in words; binding and its absence hold for the method and conditions named. Some results given as binding are weak or reduced against the parent protein; the word gives no strength. For some assays here: Tags and fused reporters may be left off the sequences shown. Each block holds one binder with its values, some of them ahead of it.

Legend:
[1] = target: T1, FITC-labeled RA peptide …-FITC; assay: fluorescence polarization, single point
T1 sequence (peptide, C-terminal FITC): RAKLDEESILKQK

[2] = target: T1, FITC-labeled RA peptide …-FITC; assay: single point fluorescence polarization, FITC-peptide with UBR-streptavidin complex
[3] = target: T2, FITC-labeled KA peptide …-FITC; assay: fluorescence polarization titration
T2 sequence (peptide, C-terminal FITC): KAKLDEESILKQK

[4] = target: T1, FITC-labeled RA peptide …-FITC; assay: fluorescence polarization titration

binding [1]: binds
B1: Saccharomyces cerevisiae UBR-box domain (PS538) (protein)
chain: MGDVHKHTGRNCGRKFKIGEPLYRCHECGCDDTCVLCIHCFNPKDHVNHHVCTDICTEFTSGICDCGDEEAWNSPLHCKAEEQ

binding [2]: binds | binding [3]: binds
B2: Kluyveromyces lactis UBR-box domain (PS528) (protein)
chain: MHSKFNHAGRICGAKFRVGEPIYRCKECSFDDTCVLCVNCFNPKDHVGHHVYTSICTEFNNGICDCGDKEAWNHELNCKGAED

binding [3]: binds | binding [4]: binds
B3: Vombatus ursinus UBR-box domain (PS522) (protein)
chain: MLCGKVFKSGETTYSCRDCAIDPTCVLCMNCFQSSVHKNHRYKMHTSTGGGFCDCGDTEAWKTGPFCTIHEP
